Reference: article PMC4260750
These are yes or no findings as the source states them, for the method shown. In cells and extracts the contact can be indirect. Binding can be weak; no strength is given.

Sequences of proteins named here, by UniProt entry; tags and fusion partners are left off. A change or cut given only in a name is not applied to a line headed by its entry.
UniProt O35598: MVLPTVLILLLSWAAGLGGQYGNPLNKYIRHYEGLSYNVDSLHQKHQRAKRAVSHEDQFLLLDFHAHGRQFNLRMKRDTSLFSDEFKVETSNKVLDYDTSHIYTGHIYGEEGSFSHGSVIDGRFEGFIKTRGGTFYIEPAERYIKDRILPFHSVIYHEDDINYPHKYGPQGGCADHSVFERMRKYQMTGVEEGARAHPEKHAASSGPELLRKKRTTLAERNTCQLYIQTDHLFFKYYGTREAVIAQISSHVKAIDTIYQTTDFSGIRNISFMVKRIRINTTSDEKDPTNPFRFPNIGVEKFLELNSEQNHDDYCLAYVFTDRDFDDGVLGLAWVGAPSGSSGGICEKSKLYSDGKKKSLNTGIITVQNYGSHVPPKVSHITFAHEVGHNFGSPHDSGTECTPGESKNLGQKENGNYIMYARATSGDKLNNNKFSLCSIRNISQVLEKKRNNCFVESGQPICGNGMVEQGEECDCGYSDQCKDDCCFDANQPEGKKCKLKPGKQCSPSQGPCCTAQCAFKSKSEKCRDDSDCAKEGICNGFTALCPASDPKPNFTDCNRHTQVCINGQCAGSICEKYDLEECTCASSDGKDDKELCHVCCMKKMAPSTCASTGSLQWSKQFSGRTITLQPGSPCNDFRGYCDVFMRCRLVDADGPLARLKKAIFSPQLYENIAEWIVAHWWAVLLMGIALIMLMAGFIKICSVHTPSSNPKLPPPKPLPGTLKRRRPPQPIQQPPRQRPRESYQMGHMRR
UniProt Q10743: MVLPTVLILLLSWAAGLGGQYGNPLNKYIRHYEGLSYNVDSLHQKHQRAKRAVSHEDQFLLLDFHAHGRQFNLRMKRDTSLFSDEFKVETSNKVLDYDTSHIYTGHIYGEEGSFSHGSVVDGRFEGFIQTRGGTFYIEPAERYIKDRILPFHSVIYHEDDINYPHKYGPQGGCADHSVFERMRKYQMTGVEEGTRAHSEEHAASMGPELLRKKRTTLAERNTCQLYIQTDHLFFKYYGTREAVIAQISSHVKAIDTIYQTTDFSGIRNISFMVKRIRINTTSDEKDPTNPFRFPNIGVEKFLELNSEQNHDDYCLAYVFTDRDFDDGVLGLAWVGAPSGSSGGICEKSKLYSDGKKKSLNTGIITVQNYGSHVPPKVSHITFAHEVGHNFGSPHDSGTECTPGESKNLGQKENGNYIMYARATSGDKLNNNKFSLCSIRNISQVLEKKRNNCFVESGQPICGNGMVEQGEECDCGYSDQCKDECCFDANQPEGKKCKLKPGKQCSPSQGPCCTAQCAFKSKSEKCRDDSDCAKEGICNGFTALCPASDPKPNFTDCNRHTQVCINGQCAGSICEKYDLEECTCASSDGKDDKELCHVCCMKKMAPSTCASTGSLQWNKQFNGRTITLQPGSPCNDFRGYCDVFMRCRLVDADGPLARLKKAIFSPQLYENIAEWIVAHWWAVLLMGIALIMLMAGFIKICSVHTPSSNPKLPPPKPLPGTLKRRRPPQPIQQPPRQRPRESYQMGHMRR

Tests used:
GST-SAP97-S642A = GST-SAP97-S642A (UniProt Q62696); assay: pull-down; GST fusion proteins on beads, phosphorylated or not by PKC in vitro, incubated 2 h with rat homogenate diluted in TBS; five washes with TBS and 0.1% Triton X-100; immunoblot; only the target purified
GST-SAP97wt = GST-SAP97wt (UniProt Q62696); assay: as above
GST-SAP97-T629A = GST-SAP97-T629A (UniProt Q62696); assay: as above
[1] = target: GST-SAP97-SH3 phosphorylated by PKC (UniProt Q62696); assay: as above
GST-SAP97-SH3 = GST-SAP97-SH3 (UniProt Q62696); assay: as above
ADAM10-Rluc = ADAM10-Rluc (UniProt O35598); assay: FRET or BRET; BRET in living HEK293 cells; constant ADAM10-Rluc (donor), rising YFP-SAP97 (acceptor), saturation curve; also real-time BRET after PMA (PKC activator)

| binding (GST-SAP97-S642A) | binding (GST-SAP97wt) | binding (GST-SAP97-T629A) | binding [1] | binding (GST-SAP97-SH3) | binding (ADAM10-Rluc) | Substance |
| --- | --- | --- | --- | --- | --- | --- |
| binds | binds | binds | binds | binds | – | ADAM10 (endogenous, rat brain) (from UniProt Q10743) |
| – | – | – | – | – | binds | YFP-SAP97 (from UniProt Q62696 1-911) |
